The text below walks through data of article PMC11191282.

Protein sequences, listed by entry. Tags and fused reporters are not part of them. Residues count along the entry.
UniProt P52799, residues 28-333: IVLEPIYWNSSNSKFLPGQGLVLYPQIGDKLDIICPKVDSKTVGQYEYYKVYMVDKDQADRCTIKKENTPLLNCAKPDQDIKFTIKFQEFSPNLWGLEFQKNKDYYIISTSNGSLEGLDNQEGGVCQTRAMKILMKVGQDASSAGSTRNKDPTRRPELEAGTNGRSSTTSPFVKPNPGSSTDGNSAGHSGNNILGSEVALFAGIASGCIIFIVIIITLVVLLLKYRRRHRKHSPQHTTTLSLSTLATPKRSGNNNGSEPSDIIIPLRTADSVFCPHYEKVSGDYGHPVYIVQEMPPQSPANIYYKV

One experiment concerns the target T1, VAV2 (UniProt P52735).
T1 sequence: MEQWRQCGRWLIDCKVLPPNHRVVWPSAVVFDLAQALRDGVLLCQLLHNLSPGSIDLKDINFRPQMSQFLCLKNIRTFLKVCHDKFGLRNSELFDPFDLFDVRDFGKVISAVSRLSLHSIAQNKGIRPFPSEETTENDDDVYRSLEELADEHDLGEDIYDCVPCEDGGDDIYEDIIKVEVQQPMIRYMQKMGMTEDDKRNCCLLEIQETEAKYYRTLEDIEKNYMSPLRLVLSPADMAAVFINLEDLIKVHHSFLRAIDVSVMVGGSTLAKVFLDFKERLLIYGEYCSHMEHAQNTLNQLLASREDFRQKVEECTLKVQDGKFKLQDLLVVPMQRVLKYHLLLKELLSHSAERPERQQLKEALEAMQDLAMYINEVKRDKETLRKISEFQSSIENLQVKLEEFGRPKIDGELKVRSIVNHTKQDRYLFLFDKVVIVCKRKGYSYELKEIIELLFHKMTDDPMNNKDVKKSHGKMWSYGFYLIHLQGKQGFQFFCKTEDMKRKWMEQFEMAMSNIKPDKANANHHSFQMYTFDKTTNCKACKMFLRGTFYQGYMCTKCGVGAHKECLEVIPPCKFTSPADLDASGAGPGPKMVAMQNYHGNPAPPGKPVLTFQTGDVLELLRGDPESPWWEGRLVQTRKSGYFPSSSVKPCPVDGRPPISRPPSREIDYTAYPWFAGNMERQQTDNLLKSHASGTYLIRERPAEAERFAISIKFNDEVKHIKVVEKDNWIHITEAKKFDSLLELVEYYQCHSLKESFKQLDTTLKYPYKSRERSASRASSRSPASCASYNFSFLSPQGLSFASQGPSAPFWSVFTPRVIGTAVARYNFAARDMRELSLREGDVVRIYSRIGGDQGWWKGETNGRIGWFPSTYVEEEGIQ
Kind of experiment: co-IP; lysate of HUVECs transfected with the EFNB2 and VAV2 overexpression plasmids; 500 µL supernatant with 8 µg IP antibody (EphrinB2 or VAV2) or control IgG at 4 °C for 12 h; magnetic beads 2 h at 4 °C; four washes with lysis buffer; Western blot.

In the next experiment the target is EphrinB2 (UniProt P52799). Described as above.

No constants are given. Whether binding was seen depends on the method and setting. Binding seen in cells or lysates may run through a third protein. Some entries that bind do so weakly or less than the wild type.

As to EphrinB2 (from UniProt P52799 28-333), the binding entry in the experiment with VAV2 is recorded as “binds”.

B1: VAV2 (protein, UniProt P52735 1-878)
chain: MEQWRQCGRWLIDCKVLPPNHRVVWPSAVVFDLAQALRDGVLLCQLLHNLSPGSIDLKDINFRPQMSQFLCLKNIRTFLKVCHDKFGLRNSELFDPFDLFDVRDFGKVISAVSRLSLHSIAQNKGIRPFPSEETTENDDDVYRSLEELADEHDLGEDIYDCVPCEDGGDDIYEDIIKVEVQQPMIRYMQKMGMTEDDKRNCCLLEIQETEAKYYRTLEDIEKNYMSPLRLVLSPADMAAVFINLEDLIKVHHSFLRAIDVSVMVGGSTLAKVFLDFKERLLIYGEYCSHMEHAQNTLNQLLASREDFRQKVEECTLKVQDGKFKLQDLLVVPMQRVLKYHLLLKELLSHSAERPERQQLKEALEAMQDLAMYINEVKRDKETLRKISEFQSSIENLQVKLEEFGRPKIDGELKVRSIVNHTKQDRYLFLFDKVVIVCKRKGYSYELKEIIELLFHKMTDDPMNNKDVKKSHGKMWSYGFYLIHLQGKQGFQFFCKTEDMKRKWMEQFEMAMSNIKPDKANANHHSFQMYTFDKTTNCKACKMFLRGTFYQGYMCTKCGVGAHKECLEVIPPCKFTSPADLDASGAGPGPKMVAMQNYHGNPAPPGKPVLTFQTGDVLELLRGDPESPWWEGRLVQTRKSGYFPSSSVKPCPVDGRPPISRPPSREIDYTAYPWFAGNMERQQTDNLLKSHASGTYLIRERPAEAERFAISIKFNDEVKHIKVVEKDNWIHITEAKKFDSLLELVEYYQCHSLKESFKQLDTTLKYPYKSRERSASRASSRSPASCASYNFSFLSPQGLSFASQGPSAPFWSVFTPRVIGTAVARYNFAARDMRELSLREGDVVRIYSRIGGDQGWWKGETNGRIGWFPSTYVEEEGIQ
As for B1, the binding result in the experiment with EphrinB2 is on record as “binds”.
